This is an account of results in paper PMC10448198.

Amino acid sequences for entries named in this document (tags omitted).
UniProt P63017: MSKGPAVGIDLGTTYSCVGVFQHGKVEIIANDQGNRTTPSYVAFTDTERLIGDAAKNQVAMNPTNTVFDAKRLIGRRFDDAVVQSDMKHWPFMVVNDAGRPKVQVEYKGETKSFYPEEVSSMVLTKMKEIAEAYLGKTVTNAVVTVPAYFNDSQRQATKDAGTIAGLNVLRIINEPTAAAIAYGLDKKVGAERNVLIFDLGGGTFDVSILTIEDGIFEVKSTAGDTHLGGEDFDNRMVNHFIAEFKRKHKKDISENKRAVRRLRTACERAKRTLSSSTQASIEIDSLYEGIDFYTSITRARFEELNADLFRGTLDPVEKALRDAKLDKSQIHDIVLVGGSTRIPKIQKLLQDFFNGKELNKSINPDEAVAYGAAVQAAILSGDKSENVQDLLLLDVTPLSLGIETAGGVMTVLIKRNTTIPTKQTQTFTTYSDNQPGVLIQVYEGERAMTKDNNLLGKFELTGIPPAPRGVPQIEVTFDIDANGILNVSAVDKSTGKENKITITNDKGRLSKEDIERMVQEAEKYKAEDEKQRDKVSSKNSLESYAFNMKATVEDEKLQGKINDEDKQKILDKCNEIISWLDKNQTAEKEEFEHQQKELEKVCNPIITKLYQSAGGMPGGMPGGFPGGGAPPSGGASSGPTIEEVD
UniProt Q60974: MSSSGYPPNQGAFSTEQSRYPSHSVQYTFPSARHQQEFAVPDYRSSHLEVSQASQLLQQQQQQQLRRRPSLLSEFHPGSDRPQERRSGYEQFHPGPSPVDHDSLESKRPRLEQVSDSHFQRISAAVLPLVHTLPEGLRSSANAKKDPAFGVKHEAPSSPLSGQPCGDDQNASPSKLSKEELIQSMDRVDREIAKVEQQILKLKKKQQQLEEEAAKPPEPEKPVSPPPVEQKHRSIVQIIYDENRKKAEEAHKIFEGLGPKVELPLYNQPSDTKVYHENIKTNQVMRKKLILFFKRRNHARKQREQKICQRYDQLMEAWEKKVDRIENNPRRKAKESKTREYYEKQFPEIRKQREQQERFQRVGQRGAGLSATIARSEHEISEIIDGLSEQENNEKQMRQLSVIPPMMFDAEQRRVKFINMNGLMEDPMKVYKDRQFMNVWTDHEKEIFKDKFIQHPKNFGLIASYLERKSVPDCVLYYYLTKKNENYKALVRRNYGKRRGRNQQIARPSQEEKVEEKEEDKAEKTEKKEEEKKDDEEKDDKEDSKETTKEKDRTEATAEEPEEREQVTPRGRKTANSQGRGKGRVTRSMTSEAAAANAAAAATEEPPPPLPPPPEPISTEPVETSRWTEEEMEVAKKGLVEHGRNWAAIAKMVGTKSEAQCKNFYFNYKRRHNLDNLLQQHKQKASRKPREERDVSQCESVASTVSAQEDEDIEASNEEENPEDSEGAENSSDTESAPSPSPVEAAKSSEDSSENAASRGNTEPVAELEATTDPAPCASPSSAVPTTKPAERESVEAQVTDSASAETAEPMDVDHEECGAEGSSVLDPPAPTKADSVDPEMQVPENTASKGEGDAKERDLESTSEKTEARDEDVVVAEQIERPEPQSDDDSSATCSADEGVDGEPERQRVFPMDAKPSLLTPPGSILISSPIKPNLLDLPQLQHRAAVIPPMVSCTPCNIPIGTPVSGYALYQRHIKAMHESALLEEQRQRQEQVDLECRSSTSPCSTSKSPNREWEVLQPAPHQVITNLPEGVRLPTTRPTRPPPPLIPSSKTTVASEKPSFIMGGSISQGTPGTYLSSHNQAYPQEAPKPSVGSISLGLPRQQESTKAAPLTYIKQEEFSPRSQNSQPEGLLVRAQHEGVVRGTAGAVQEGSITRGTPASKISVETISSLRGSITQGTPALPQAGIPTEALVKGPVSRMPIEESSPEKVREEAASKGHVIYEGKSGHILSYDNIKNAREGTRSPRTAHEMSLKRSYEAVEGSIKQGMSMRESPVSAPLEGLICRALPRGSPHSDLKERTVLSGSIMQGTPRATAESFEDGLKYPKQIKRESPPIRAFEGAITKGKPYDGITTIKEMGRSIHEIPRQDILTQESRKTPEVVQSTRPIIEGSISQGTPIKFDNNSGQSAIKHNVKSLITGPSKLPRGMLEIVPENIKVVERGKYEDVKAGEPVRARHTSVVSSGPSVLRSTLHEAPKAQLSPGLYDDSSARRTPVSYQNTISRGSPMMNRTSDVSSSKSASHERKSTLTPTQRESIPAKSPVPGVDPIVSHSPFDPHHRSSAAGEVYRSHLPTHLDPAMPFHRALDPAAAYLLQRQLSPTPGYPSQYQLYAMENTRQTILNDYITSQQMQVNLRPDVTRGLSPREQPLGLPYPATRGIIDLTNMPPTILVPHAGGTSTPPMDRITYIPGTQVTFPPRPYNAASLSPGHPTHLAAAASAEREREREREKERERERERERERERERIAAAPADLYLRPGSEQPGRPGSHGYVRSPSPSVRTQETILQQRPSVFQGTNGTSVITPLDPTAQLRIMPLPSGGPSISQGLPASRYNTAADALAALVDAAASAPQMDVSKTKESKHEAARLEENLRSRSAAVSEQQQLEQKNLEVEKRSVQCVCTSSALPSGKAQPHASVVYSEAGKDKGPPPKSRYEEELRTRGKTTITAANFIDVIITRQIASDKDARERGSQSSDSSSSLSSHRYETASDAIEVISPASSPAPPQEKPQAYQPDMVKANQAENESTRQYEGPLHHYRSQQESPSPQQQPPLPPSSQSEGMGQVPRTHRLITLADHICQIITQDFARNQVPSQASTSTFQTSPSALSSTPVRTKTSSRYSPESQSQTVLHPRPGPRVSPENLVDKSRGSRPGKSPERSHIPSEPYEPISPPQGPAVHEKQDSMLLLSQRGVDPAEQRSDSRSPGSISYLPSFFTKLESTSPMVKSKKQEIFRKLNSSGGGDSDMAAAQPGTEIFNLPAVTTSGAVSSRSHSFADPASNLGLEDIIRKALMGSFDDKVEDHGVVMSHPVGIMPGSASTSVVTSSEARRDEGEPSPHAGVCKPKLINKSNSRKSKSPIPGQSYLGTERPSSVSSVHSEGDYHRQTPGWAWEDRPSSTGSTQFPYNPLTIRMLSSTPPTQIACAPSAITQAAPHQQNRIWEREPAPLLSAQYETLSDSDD

No constants are given. Whether binding was seen depends on the method and setting. In cells and extracts the contact can be indirect. Some results given as binding are weak or reduced against the parent protein; the word gives no strength.

This assay addresses Heat shock cognate 71 kDa protein (Hsc70) (mouse (endogenous in primary hepatocytes)) (UniProt P63017). Kind of assay: co-IP; endogenous proteins of mouse primary hepatocytes; precipitated overnight with Hsc70 antibody (IgG as control) and protein G agarose beads; washed three times with modified RIPA buffer; western blot. Background: In western blotting, separated proteins are transferred to a membrane and probed.

“nuclear receptor corepressor 1 (NCoR1) (from UniProt Q60974 1-2453)”: the binding result was “binds”.
